From the supplement of paper PMC11006884
The list shows a part of the results, in another mix than the full data.

Chains of the proteins cited; added tags and fusions are not shown. Lines headed by an entry give the natural chain unless they say otherwise; changes in a name come on top.
UniProt Q9UGR2: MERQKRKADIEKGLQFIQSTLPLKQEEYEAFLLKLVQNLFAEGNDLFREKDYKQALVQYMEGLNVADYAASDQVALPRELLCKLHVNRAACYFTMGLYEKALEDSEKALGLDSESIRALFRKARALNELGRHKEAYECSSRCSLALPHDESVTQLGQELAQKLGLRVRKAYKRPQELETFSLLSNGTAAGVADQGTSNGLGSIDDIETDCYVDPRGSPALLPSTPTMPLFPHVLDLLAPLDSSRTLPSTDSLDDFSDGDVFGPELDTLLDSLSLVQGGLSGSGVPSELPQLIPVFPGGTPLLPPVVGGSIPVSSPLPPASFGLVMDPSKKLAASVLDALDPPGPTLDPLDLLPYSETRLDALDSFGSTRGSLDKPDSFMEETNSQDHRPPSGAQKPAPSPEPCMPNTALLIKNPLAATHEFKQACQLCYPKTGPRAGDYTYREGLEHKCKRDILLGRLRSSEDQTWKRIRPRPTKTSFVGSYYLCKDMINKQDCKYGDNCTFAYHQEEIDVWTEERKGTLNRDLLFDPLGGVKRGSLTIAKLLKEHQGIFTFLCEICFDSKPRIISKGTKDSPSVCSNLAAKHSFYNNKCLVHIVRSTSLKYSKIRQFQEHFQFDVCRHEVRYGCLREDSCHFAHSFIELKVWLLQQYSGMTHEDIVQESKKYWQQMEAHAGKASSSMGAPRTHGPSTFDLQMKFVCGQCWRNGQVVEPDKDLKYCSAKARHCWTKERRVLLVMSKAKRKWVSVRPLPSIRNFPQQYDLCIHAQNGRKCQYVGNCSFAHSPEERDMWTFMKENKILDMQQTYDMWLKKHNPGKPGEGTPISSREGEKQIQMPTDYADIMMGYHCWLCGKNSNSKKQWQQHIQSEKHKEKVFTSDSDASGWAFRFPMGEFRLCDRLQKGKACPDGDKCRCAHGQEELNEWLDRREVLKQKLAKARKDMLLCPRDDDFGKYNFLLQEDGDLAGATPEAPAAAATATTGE
UniProt Q9UBC2: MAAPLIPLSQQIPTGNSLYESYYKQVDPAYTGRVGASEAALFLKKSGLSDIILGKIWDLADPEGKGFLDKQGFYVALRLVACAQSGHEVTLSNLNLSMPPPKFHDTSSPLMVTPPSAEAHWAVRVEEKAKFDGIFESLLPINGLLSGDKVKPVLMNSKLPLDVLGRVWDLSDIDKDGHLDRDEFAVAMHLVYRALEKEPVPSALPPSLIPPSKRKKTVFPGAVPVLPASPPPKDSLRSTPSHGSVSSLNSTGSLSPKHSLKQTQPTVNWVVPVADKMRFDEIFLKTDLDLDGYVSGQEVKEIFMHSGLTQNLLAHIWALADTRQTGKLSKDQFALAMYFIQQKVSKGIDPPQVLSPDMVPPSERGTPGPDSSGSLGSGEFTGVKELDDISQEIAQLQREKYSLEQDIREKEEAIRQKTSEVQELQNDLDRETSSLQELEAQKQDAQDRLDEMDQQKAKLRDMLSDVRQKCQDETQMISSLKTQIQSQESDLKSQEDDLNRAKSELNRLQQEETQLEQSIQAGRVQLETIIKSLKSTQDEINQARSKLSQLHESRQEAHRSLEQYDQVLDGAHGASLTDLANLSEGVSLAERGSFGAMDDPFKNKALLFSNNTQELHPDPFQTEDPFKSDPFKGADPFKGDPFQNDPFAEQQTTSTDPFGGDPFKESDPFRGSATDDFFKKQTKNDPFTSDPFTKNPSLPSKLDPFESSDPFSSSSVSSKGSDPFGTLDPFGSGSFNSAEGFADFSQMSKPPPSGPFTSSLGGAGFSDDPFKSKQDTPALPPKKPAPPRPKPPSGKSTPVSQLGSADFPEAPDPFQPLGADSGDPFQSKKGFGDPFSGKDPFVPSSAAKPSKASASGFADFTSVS
UniProt Q9P287, whole entry: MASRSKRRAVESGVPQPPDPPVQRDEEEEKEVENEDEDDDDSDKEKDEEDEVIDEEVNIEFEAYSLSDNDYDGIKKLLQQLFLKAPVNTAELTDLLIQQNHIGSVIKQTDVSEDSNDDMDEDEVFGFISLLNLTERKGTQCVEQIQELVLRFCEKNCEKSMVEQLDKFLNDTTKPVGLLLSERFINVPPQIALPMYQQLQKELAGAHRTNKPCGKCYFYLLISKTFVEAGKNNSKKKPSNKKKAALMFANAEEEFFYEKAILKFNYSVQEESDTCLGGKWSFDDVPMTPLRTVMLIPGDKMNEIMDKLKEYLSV
UniProt Q9UBS0: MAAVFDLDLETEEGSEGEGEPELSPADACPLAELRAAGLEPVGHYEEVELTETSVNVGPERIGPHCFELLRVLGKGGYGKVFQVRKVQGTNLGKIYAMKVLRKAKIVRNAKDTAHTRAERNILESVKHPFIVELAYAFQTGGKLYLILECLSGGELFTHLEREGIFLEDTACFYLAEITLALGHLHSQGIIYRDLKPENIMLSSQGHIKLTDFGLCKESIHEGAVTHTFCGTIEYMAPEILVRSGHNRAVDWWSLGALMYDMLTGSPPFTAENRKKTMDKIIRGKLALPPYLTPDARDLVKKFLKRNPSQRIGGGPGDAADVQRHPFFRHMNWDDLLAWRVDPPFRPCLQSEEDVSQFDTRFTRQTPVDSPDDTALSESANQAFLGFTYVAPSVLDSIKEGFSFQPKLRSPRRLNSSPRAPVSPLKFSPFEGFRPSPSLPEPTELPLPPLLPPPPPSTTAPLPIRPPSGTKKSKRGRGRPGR
UniProt Q9UBB6: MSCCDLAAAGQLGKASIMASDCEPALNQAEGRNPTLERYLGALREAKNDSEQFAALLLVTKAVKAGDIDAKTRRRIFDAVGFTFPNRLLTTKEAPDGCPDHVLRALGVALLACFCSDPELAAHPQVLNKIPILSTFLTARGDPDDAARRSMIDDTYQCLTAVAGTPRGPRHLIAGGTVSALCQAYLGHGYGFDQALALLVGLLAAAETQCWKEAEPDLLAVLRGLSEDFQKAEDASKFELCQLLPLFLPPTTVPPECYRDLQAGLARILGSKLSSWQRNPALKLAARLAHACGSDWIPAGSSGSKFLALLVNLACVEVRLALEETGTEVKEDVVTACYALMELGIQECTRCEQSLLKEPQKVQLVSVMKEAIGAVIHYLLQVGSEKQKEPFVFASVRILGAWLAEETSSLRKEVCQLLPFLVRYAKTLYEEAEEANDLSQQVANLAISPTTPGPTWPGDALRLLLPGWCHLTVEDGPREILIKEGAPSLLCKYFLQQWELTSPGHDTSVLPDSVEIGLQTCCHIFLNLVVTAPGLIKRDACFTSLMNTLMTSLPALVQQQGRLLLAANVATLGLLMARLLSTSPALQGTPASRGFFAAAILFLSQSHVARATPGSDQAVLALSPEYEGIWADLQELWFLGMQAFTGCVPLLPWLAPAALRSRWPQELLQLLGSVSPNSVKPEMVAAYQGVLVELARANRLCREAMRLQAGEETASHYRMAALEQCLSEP
UniProt Q9UBW7: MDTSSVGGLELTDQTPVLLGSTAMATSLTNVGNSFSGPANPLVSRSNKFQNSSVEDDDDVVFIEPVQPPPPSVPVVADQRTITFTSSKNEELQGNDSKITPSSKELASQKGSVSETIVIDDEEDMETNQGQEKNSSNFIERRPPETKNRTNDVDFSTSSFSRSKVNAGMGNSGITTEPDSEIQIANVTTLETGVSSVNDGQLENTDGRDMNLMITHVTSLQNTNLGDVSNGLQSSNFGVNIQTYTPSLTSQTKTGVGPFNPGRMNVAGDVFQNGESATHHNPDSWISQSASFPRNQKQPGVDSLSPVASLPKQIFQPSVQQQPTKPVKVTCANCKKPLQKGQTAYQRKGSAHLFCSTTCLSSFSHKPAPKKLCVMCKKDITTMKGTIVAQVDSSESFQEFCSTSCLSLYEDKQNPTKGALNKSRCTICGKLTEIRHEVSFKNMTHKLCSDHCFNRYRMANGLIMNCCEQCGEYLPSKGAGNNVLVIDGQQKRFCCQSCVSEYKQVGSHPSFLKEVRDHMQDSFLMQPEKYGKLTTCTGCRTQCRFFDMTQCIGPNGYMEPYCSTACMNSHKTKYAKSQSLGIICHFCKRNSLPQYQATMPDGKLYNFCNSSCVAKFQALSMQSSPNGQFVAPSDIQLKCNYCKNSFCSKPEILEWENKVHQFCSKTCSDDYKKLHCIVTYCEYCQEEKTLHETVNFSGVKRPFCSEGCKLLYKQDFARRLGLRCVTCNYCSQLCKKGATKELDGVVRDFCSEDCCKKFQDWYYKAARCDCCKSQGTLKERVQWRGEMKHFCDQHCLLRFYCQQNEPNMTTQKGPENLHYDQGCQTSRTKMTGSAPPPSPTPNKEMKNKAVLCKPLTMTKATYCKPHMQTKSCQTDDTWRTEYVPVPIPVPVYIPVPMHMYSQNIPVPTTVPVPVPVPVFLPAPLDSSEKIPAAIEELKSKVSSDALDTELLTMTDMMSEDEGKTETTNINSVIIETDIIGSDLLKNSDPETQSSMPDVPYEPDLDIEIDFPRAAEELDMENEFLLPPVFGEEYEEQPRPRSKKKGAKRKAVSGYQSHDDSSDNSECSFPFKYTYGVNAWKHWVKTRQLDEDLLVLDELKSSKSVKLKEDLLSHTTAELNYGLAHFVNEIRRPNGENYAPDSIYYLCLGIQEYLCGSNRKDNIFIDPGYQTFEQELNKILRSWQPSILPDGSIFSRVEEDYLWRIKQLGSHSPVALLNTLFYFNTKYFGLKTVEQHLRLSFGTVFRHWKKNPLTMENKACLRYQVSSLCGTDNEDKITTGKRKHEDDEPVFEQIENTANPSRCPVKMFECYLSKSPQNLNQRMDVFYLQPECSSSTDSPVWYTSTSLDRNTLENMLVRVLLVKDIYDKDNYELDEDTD
UniProt Q9NVV4: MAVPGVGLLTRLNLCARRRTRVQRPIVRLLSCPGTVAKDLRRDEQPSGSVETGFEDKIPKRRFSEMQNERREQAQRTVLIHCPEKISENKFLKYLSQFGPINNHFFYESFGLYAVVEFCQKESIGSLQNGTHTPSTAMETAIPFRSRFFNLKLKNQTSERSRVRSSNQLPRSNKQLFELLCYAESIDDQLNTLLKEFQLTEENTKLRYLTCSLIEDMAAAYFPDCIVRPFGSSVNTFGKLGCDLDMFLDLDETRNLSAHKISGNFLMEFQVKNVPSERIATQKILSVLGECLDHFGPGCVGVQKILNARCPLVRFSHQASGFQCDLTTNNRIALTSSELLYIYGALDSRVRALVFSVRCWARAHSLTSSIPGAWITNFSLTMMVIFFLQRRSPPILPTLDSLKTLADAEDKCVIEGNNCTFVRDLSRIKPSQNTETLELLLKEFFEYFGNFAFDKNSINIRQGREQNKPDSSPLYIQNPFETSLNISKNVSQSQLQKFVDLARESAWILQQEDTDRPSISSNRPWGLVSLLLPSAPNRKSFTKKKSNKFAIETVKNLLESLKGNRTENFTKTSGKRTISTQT
UniProt Q9UBB4: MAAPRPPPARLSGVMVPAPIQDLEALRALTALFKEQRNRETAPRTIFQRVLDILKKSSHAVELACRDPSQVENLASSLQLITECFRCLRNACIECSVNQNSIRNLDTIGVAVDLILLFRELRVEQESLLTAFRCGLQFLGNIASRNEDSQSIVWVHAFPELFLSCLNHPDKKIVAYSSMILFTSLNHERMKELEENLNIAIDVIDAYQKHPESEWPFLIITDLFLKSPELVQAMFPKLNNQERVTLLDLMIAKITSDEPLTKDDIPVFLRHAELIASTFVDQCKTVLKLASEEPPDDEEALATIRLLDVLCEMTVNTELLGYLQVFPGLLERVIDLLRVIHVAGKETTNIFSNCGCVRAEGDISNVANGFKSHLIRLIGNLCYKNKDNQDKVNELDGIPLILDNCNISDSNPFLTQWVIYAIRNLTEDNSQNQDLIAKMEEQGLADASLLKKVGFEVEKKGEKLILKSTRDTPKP
UniProt Q9NXA8: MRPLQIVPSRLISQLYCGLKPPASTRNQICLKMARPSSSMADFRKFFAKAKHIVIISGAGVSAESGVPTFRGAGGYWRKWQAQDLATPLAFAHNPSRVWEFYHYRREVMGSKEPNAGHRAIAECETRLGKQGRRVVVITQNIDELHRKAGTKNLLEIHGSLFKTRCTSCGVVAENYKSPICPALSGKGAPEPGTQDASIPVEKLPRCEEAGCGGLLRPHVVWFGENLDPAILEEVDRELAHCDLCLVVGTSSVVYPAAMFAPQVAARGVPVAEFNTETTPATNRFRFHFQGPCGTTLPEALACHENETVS
UniProt Q9NUU7: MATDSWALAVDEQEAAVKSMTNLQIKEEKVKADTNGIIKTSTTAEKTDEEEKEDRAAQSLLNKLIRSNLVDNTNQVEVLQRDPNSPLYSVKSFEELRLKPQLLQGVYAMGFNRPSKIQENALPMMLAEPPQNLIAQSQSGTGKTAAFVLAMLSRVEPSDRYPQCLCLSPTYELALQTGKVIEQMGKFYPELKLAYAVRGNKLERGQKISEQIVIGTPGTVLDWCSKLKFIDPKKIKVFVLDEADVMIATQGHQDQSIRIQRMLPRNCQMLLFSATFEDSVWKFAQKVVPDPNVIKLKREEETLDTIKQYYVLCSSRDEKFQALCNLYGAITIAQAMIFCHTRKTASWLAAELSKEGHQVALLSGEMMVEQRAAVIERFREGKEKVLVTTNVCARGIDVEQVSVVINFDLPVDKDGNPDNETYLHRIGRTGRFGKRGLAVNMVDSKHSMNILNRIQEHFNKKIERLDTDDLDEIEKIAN

These targets were tested with COC(=O)C#Cc1ccccc1 [methyl 3-phenylpropiolate] (assay: log2 ratio of iodoacetamide-alkyne labeling of the cysteine site, DMSO over compound (competition); higher = stronger covalent engagement of the cysteine by the compound, active = 1 or more). Conditions: 500 µM; treatment time 1 h; system: HEK293T cell lysate.
Procedure, shortened: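 Three replicates, each with duplicate channels, were prepared from HEK293T lysate (2 mg/mL) treated with vehicle or electrophile at 500 µM for 1 h at ambient temperature. Iodoacetamide alkyne was then applied for 1 h, and samples were clicked to sCIP-TMT reagents, pooled, trypsin-digested overnight at 37 °C, enriched on streptavidin, acid-eluted and analysed on Orbitrap Eclipse LC-MS/MS with FAIMS, with FragPipe quantification. The log2 competition ratio per cysteine is the mean control-channel divided by the mean compound-channel reporter intensity. Cysteines quantified in only one replicate were left out.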

Target | log2 ratio of iodoacetamide-alkyne labeling
DPP3 C147 (UniProt Q9NY33) | inactive: -0.0949
UniProt Q9NVA2_C41 | inactive: -0.218
CDKN2AIP C178 (UniProt Q9NXV6) | inactive: 0.391
LIMD1 C148 (UniProt Q9UGP4) | inactive: 0.445
SEC63 C295 (UniProt Q9UGP8) | inactive: 0.629
DIP2B C333 (UniProt Q9P265) | inactive: 0.345
TJP2 C601 (UniProt Q9UDY2) | inactive: 0.237
ZC3H7B C925 (UniProt Q9UGR2) | inactive: -0.0926
EPS15L1 C470 (UniProt Q9UBC2) | inactive: 0.13
BCCIP C141 (UniProt Q9P287) | inactive: -0.0782
UniProt Q9UBS0_C348 | inactive: 0.331
DNAJC11 C235 (UniProt Q9NVH1) | inactive: 0.103
FANCI C1085 (UniProt Q9NVI1) | inactive: 0.251
POLR3E C456 (UniProt Q9NVU0) | inactive: 0.675
NCDN C415 (UniProt Q9UBB6) | inactive: 0.318
ALKBH4 C126 (UniProt Q9NXW9) | inactive: 0.103
DAXX C720 (UniProt Q9UER7) | active: 1.35
NCDN C3 (UniProt Q9UBB6) | active: 1.66
AASS C305 (UniProt Q9UDR5) | inactive: 0.229

An excerpt of the results above:
Target | log2 ratio of iodoacetamide-alkyne labeling
LIMD1 C148 (UniProt Q9UGP4) | inactive: 0.445
SEC63 C295 (UniProt Q9UGP8) | inactive: 0.629

Later entries:

Target | log2 ratio of iodoacetamide-alkyne labeling
ZMYM2 C852 (UniProt Q9UBW7) | inactive: 0.581
UniProt Q9UBD5_C158 | active: 1.13
UniProt Q9NUQ3_C56 | active: 1.97
MTPAP C419 (UniProt Q9NVV4) | inactive: 0.508
ATAD3A C618 (UniProt Q9NVI7) | inactive: 0.539
MRPL27 C88 (UniProt Q9P0M9) | inactive: 0.189
SLAIN2 C306 (UniProt Q9P270) | inactive: 0.43
MTCH1 C385 (UniProt Q9NZJ7) | inactive: 0.266
IRAK4 C13 (UniProt Q9NWZ3) | inactive: 0.336
TES C361 (UniProt Q9UGI8) | inactive: 0.125
ATXN10 C356 (UniProt Q9UBB4) | active: 1.32
SIRT5 C303 (UniProt Q9NXA8) | inactive: 0.176
VAPA C60 (UniProt Q9P0L0) | inactive: 0.173
EXOC1 C650 (UniProt Q9NV70) | inactive: 0.174
ASH2L C207 (UniProt Q9UBL3) | inactive: 0.0802
KIAA1522 C575 (UniProt Q9P206) | inactive: 0.349
DDX19A C224 (UniProt Q9NUU7) | inactive: 0.0835
MRPL16 C167 (UniProt Q9NX20) | inactive: -0.0869
